Measurements from the supplement of paper PMC10849652.
The other results are listed elsewhere or left out.

By UniProt entry, the sequences of proteins in these tests, tags left out. Where a name states a change or a piece, a line headed by the entry shows the natural chain unless it says otherwise.
UniProt Q96QD8: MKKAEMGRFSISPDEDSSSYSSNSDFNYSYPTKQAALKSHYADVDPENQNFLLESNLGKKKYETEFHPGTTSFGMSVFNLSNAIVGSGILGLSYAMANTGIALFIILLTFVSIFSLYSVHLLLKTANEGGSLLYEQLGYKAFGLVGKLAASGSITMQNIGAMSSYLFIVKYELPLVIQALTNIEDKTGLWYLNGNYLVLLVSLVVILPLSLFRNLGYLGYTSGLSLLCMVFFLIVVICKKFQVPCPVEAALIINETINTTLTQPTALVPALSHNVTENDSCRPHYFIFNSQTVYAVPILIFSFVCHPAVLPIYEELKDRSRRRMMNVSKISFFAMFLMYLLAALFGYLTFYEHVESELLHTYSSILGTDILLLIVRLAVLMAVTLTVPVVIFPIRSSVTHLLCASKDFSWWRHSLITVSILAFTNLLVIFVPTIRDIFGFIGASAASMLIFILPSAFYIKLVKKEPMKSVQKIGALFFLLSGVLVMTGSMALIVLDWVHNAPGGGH
UniProt Q9NVC3: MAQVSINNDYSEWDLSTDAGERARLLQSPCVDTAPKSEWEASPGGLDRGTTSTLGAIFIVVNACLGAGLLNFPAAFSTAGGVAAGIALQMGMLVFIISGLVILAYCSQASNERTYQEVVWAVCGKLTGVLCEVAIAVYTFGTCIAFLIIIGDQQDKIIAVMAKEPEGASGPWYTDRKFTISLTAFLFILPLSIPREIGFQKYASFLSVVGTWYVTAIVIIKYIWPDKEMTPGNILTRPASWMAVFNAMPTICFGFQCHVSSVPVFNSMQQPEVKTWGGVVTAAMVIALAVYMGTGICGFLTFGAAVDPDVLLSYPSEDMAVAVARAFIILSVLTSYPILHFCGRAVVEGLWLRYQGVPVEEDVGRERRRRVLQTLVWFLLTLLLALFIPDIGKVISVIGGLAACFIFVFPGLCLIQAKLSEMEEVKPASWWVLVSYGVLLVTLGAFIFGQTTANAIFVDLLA
UniProt P04920: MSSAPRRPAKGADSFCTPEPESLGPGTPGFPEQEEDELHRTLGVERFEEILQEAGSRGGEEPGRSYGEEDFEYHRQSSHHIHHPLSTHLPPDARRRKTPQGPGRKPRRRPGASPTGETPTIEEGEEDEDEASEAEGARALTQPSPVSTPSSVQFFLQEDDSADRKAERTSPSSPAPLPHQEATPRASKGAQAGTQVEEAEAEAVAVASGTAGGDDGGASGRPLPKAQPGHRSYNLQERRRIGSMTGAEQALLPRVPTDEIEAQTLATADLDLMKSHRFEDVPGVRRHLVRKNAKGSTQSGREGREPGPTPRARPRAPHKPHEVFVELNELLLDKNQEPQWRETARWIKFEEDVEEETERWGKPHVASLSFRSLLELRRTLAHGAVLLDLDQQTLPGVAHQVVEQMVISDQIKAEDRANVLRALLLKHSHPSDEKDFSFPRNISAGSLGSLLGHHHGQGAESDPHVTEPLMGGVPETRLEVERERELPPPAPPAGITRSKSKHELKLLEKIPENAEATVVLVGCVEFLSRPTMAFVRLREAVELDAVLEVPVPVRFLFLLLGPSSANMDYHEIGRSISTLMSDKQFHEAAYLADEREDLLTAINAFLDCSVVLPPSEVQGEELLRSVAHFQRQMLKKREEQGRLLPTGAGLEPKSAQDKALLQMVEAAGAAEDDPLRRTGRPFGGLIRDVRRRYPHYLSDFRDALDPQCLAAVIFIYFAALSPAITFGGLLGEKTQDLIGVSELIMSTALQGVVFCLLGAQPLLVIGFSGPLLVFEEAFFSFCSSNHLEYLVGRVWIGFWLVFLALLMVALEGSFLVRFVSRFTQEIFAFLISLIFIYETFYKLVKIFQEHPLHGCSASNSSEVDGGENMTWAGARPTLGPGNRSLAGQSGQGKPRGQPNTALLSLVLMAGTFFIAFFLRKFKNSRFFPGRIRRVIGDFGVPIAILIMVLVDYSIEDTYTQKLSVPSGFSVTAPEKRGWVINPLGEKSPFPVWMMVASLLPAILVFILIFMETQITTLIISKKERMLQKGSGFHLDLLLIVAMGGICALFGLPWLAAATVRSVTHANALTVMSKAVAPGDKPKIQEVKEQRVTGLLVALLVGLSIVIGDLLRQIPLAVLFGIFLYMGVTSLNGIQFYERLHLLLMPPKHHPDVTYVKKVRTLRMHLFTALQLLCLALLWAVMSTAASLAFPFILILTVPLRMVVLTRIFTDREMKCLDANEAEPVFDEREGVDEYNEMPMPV
UniProt Q9BV35: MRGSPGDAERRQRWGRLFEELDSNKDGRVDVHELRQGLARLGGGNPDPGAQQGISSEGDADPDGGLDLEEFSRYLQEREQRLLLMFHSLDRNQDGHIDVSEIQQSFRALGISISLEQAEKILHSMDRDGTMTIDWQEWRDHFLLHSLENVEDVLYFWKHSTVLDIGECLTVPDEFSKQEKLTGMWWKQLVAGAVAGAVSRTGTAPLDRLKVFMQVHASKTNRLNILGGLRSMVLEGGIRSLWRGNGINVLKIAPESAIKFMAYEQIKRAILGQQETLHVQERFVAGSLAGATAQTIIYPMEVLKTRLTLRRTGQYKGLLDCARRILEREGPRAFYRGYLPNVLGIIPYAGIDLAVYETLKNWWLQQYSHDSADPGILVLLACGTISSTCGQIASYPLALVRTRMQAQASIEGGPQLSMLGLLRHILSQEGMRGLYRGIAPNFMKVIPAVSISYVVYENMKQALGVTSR
UniProt Q9BZJ4: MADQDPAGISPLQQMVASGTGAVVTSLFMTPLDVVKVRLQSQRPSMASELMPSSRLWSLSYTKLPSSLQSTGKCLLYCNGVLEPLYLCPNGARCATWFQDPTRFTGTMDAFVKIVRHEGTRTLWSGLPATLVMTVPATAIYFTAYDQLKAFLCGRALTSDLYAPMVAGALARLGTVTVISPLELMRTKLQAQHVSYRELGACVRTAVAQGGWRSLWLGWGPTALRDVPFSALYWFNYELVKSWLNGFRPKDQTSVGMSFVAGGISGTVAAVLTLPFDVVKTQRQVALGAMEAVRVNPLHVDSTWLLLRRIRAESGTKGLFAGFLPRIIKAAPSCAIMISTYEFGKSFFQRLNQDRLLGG
UniProt Q8N1S5: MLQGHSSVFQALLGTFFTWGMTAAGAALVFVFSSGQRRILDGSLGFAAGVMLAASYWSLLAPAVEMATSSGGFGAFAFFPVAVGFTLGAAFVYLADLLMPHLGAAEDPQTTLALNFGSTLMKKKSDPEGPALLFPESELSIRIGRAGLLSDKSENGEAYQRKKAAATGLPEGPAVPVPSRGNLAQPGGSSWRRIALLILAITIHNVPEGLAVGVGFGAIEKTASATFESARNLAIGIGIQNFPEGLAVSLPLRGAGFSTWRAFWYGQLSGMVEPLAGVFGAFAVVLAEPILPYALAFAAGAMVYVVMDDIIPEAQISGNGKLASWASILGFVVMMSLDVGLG
UniProt Q14493, whole entry, looked up: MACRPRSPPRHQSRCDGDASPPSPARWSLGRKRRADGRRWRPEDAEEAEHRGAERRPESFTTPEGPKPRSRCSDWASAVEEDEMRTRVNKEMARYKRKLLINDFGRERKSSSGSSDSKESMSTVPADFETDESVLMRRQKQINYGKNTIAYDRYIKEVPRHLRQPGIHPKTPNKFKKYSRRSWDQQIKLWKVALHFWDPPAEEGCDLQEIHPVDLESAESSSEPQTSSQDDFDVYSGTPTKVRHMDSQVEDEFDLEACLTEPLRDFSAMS
UniProt Q6XR72: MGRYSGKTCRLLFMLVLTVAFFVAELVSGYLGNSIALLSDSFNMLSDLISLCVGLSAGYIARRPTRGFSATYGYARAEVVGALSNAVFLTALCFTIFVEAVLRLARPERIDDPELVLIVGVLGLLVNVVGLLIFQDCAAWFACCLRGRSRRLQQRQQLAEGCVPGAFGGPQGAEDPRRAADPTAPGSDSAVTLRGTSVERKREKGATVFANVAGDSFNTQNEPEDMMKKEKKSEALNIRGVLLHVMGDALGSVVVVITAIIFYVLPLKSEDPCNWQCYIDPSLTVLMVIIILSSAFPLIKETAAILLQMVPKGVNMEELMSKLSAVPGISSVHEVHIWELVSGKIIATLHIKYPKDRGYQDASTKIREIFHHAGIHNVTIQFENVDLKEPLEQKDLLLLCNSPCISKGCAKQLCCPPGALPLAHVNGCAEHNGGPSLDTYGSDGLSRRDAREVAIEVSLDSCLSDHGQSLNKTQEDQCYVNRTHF

Experiments:
Test in all cases: log2 fold change, soluble protein after heating vs DMSO (PISA); higher = thermal stabilisation; K562 cells, 10 uM, 30 min; active = over 0.2 and 3.5 SD of the protein, either way, in both replicates (recomputed)
[1] = compound: CS(=O)(=O)c1ccc(-c2cnc(N)c(C(=O)Nc3ccccc3)n2)cc1
Outline: (§1)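 Thermal stability values are relative to control samples and come from duplicates. They are expressed as log2 fold changes. For measurement, K562 cells (2×10^6 cells/mL) received 10 μM compound for 30 min, and aliquots were heated for 3 min over 48°C-58°C, pooled, and extracted at 4°C in PBS with 0.5% NP-40. Soluble protein, the supernatant after 21,000xg for 90 min, was quantified by TMTpro 16plex LC-MS/MS with equalised channel sums.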

crizotinib = compound: C[C@@H](Oc1cc(-c2cnn(C3CCNCC3)c2)cnc1N)c1c(Cl)ccc(F)c1Cl [crizotinib]
Outline: as §1

[2] = compound: C[C@@H]1COCCN1C2=NC(=NC(=C2)C3(CC3)S(=O)(=O)C)C4=C5C=CNC5=CC=C4
Outline: as §1

[3] = compound: C[C@H](C1=CC=C(C=C1)C(=O)NC2=C3C=CNC3=NC=C2)N
Outline: as §1

[4] = compound: Cc1cc(SCc2sc(-c3ccc(C(F)(F)F)cc3)nc2C)ccc1OCC(=O)O
Outline: as §1

doramapimod = compound: Cc1ccc(-n2nc(C(C)(C)C)cc2NC(=O)Nc2ccc(OCCN3CCOCC3)c3ccccc23)cc1 [doramapimod]
Outline: as §1

ispinesib = compound: Cc1ccc(C(=O)N(CCCN)[C@@H](c2nc3cc(Cl)ccc3c(=O)n2Cc2ccccc2)C(C)C)cc1 [ispinesib]
Outline: as §1

bafetinib = compound: Cc1ccc(NC(=O)c2ccc(CN3CC[C@H](N(C)C)C3)c(C(F)(F)F)c2)cc1Nc1nccc(-c2cncnc2)n1 [bafetinib]
Outline: as §1

nilotinib = compound: Cc1cn(-c2cc(NC(=O)c3ccc(C)c(Nc4nccc(-c5cccnc5)n4)c3)cc(C(F)(F)F)c2)cn1 [nilotinib]
Outline: as §1

[5] = compound: Cc1nc(Nc2n[nH]c3c2CN(C(=O)N[C@H](CN(C)C)c2ccccc2)C3(C)C)c2sccc2n1
Outline: as §1

dasatinib = compound: Cc1nc(Nc2ncc(C(=O)Nc3c(C)cccc3Cl)s2)cc(N2CCN(CCO)CC2)n1 [dasatinib]
Outline: as §1

[6] = compound: Cc1ncc(-c2ccnc(Nc3ccc(S(C)(=O)=O)cc3)n2)n1C(C)C
Outline: as §1

[7] = compound: Cn1cc(-c2ccc3c(c2)CCN3C(=O)Cc2cccc(C(F)(F)F)c2)c2c(N)ncnc21
Outline: as §1

[8] = compound: Cn1cc(-c2ccc3nnc(C(F)(F)c4ccc5ncccc5c4)n3n2)cn1
Outline: as §1

tipifarnib = compound: Cn1cncc1[C@@](N)(c1ccc(Cl)cc1)c1ccc2c(c1)c(-c1cccc(Cl)c1)cc(=O)n2C [tipifarnib]
Outline: as §1

mubritinib = compound: FC(F)(F)c1ccc(/C=C/c2nc(COc3ccc(CCCCn4ccnn4)cc3)co2)cc1 [mubritinib]
Outline: as §1

gandotinib = compound: Cc1cc(Nc2cc(CN3CCOCC3)c3nc(C)c(Cc4ccc(Cl)cc4F)n3n2)n[nH]1 [gandotinib]
Outline: as §1

[9] = compound: Cc1cccc(CC(=O)N2CCc3c2ccc(-c2cn(C)c4ncnc(N)c24)c3F)n1
Outline: as §1

duvelisib = compound: C[C@H](Nc1ncnc2nc[nH]c12)c1cc2cccc(Cl)c2c(=O)n1-c1ccccc1 [duvelisib]
Outline: as §1

tozasertib = compound: Cc1cc(Nc2cc(N3CCN(C)CC3)nc(Sc3ccc(NC(=O)C4CC4)cc3)n2)n[nH]1 [tozasertib]
Outline: as §1

Row | Target | log2 fold change [1] | log2 fold change (crizotinib) | log2 fold change [2] | log2 fold change [3] | log2 fold change [4] | log2 fold change (doramapimod) | log2 fold change (ispinesib) | log2 fold change (bafetinib) | log2 fold change (nilotinib) | log2 fold change [5] | log2 fold change (dasatinib) | log2 fold change [6] | log2 fold change [7] | log2 fold change [8] | log2 fold change (tipifarnib) | log2 fold change (mubritinib) | log2 fold change (gandotinib) | log2 fold change [9] | log2 fold change (duvelisib) | log2 fold change (tozasertib)
1 | SLC38A2 (UniProt Q96QD8) | inactive: 0.031 | inactive: 0.028 | inactive: 0.075 | inactive: -0.075 | inactive: 0 | inactive: -0.03 | inactive: -0.049 | inactive: -0.112 | inactive: -0.037 | inactive: 0.039 | inactive: 0.047 | inactive: 0.029 | inactive: -0.055 | inactive: 0.029 | inactive: -0.073 | inactive: 0.017 |  |  |  | 
2 | SLC38A7 (UniProt Q9NVC3) | inactive: -0.018 | inactive: -0.449 | inactive: 0.045 | inactive: -0.009 |  | inactive: 0.035 | active: -0.842 | inactive: -0.142 | inactive: 0.05 | inactive: -0.023 |  | inactive: -0.053 | inactive: -0.005 | inactive: 0.084 | inactive: 0.056 | inactive: -0.007 | inactive: -0.412 | inactive: 0.016 |  | 
3 | SLC4A2 (UniProt P04920) | inactive: 0.114 | inactive: -0.053 | inactive: 0.013 | inactive: 0.126 | inactive: -0.058 | inactive: 0.07 | inactive: -0.099 | inactive: -0.101 | inactive: 0.027 | inactive: -0.165 | inactive: -0.125 | inactive: 0.043 | inactive: 0.023 | inactive: -0.045 | inactive: -0.068 | inactive: 0.029 | inactive: -0.075 | inactive: -0.037 |  | 
4 | SLC25A23 isoform 3 (UniProt Q9BV35) | inactive: 0.115 | inactive: 0.174 |  | inactive: 0.029 | inactive: 0.009 | inactive: 0 | inactive: 0.008 | inactive: -0.037 | inactive: -0.003 | inactive: -0.329 | inactive: -0.116 | inactive: 0.196 | inactive: -0.067 | inactive: 0.003 | inactive: -0.017 | inactive: -0.107 | inactive: -0.065 | inactive: 0.029 | inactive: 0.078 | inactive: 0.06
5 | SLC25A39 (UniProt Q9BZJ4) | inactive: -0.029 | inactive: -0.025 | inactive: 0.14 | inactive: -0.165 | inactive: -0.08 | inactive: -0.079 | inactive: -0.523 | inactive: -0.182 | inactive: -0.136 | inactive: -0.119 | inactive: -0.035 | inactive: 0.035 | inactive: 0.081 | inactive: 0.092 | inactive: 0.009 | inactive: 0.104 | inactive: 0.075 | inactive: -0.397 |  | 
6 | SLC39A11 (UniProt Q8N1S5) | inactive: 0.121 | inactive: 0.109 |  | inactive: -0.066 | inactive: -0.126 | inactive: 0.009 | inactive: 0.085 | inactive: -0.13 | inactive: -0.028 | inactive: 0.001 | inactive: 0.058 | inactive: 0.248 | inactive: 0.128 | inactive: 0.002 | inactive: 0.048 | inactive: -0.005 | inactive: 0.271 | inactive: -0.043 |  | 
7 | SLBP (UniProt Q14493) | inactive: -0.026 | inactive: -0.042 | inactive: 0.132 | inactive: 0.003 | inactive: 0.055 | inactive: 0.007 | inactive: -0.063 | inactive: 0.11 | inactive: -0.05 | inactive: -0.093 | inactive: 0.031 | active: -0.423 | inactive: -0.042 | inactive: -0.033 | inactive: 0 | inactive: -0.023 | inactive: -0.022 | inactive: -0.017 |  | 
8 | SLC30A10 (UniProt Q6XR72) | inactive: 0.11 | inactive: 0.192 | inactive: 0.178 | inactive: -0.001 | inactive: -0.046 | inactive: 0.035 | inactive: 0.077 | inactive: -0.019 | inactive: 0.029 | inactive: -0.061 | inactive: 0.016 | inactive: 0.043 | inactive: 0.078 | inactive: -0.026 | inactive: 0.067 | inactive: -0.007 | inactive: -0.078 | inactive: -0.148 |  | 
